The list is a part of this screen's results and no random one: it gathers tests that were run many times, whatever their T/C, doses with no T/C, and many T/C values between a quarter and a half above the control. Other doses and runs of a compound stand elsewhere. T/C gives the treated animals as a percentage of the vehicle group. Some entries give survivors of the animals treated and no T/C: the source files T/C as zero there, which appears to mark a toxic dose or a test without result, not a measured value. Some survivor counts are full or nearly so, which does not show that the dose was tolerated: the source hardly ever lists a survival T/C far under the control, and the zero likely stands for such cases as well. Survivors were counted at the toxicity check, usually on the fifth day, unless a day is given; later deaths do not show. Schedule codes are those of the source, read here as Q, the interval in days (D) or hours (H), X, the number of doses. Where survival is the endpoint, the PubChem record calls one and a half times the control and up active, and a quarter to a half above the control has no call in these data; cut-offs in other NCI protocols can differ. Some entries were tested several times; the values are given in rising order.
Tested on: P388 leukemia ip, CD2F1 mice, survival T/C
Experiment: NCI In Vivo Anticancer Drug Screen. Data for tumor model P388 Leukemia (intraperitoneal) in CD2F1 (CDF1) mice
Conditions: T/C endpoint: median survival time, higher T/C = longer survival
[1] = dose: 25.0 mg/kg/injection, schedule: Q01DX005 (ip), vehicle: saline with Tween-80
[2] = dose: 50.0 mg/kg/injection, schedule: Q01DX005 (ip), vehicle: saline with Tween-80
[3] = dose: 100.0 mg/kg/injection, schedule: Q01DX005 (ip), vehicle: saline with Tween-80
[4] = dose: 200.0 mg/kg/injection, schedule: Q01DX005 (ip), vehicle: saline with Tween-80

Which survivor count (dose: 120.0 mg/kg/injection, schedule: Q01DX005 (ip), vehicle: saline with Tween-80) does the source give for `N#Cc1c(=O)[nH]c(=O)n2c1[nH]c1ccccc12` here?
Its survivor count is 1 of 6.

And the survivor count (dose: 240.0 mg/kg/injection, schedule: Q01DX005 (ip), vehicle: saline with Tween-80)?
The survivor count was 1 of 6.

Which T/C (dose: 0.19 mg/kg/injection, schedule: Q01DX009 (ip), vehicle: saline with Tween-80) does the source give for `[C-]#[N+]C1CC2CCC1C2.[C-]#[N+]C1CC2CCC1C2.[C-]#[N+]C1CC2CCC1C2.[C-]#[N+]C1CC2CCC1C2.[C-]#[N+]C1CC2CCC1C2.[C-]#[N+]C1CC2CCC1C2.[Mn]` (stereo not drawn) here?
The T/C was 142 % of control.

What about the T/C (dose: 0.38 mg/kg/injection, schedule: Q01DX009 (ip), vehicle: saline with Tween-80) of the same compound?
Its T/C is 131 % of control.

And the survivor count (dose: 1.5 mg/kg/injection, schedule: Q01DX009 (ip), vehicle: saline with Tween-80)?
Its survivor count is 4 of 6.

And the survivor count (dose: 3.0 mg/kg/injection, schedule: Q01DX009 (ip), vehicle: saline with Tween-80)?
The survivor count was 0 of 6.

What about the survivor count (dose: 6.0 mg/kg/injection, schedule: Q01DX009 (ip), vehicle: saline with Tween-80) of the same compound?
Its survivor count is 0 of 6.

And the survivor count (dose: 6.25 mg/kg/injection, schedule: Q01DX009 (ip), vehicle: saline with Tween-80)?
The survivor count was 0 of 6.

What about the survivor count (dose: 12.5 mg/kg/injection, schedule: Q01DX009 (ip), vehicle: saline with Tween-80) of the same compound?
Its survivor count is 0 of 6.

And the survivor count (dose: 25.0 mg/kg/injection, schedule: Q01DX009 (ip), vehicle: saline with Tween-80)?
The survivor count was 0 of 6.

And the survivor count (dose: 50.0 mg/kg/injection, schedule: Q01DX009 (ip), vehicle: saline with Tween-80)?
Its survivor count is 0 of 6.

And the survivor count (dose: 100.0 mg/kg/injection, schedule: Q01DX009 (ip), vehicle: saline with Tween-80)?
Its survivor count is 0 of 6.

What about the survivor count (dose: 200.0 mg/kg/injection, schedule: Q01DX009 (ip), vehicle: saline with Tween-80) of the same compound?
The survivor count was 0 of 6.

For `C=Cn1ccnc1C.C=Cn1ccnc1C.CC(=O)CC(C)=O.CC(=O)CC(C)=O.[Co]`, which survivor count (dose: 100.0 mg/kg/injection, schedule: Q04DX003 (ip), vehicle: saline) is on record?
Its survivor count is 5 of 6.

`O=C(Nc1ccccc1)/C(Cl)=C(/Cl)C(=O)C(Cl)(Cl)Cl` was tested. Which survivor count (dose: 50.0 mg/kg/injection, schedule: Q01DX009 (ip), vehicle: distilled water + Tween-80) did it give?
The survivor count was 0 of 6.

And the survivor count (dose: 100.0 mg/kg/injection, schedule: Q01DX009 (ip), vehicle: distilled water + Tween-80)?
Its survivor count is 0 of 6.

What about the survivor count (dose: 200.0 mg/kg/injection, schedule: Q01DX009 (ip), vehicle: distilled water + Tween-80) of the same compound?
Its survivor count is 0 of 6.

With `CC1=CCCC(C(C)O)O1` (stereo not drawn) as the compound, how does the survivor count (dose: 50.0 mg/kg/injection, schedule: Q01DX009 (ip), vehicle: saline) read?
The survivor count was 6 of 6.

What about the survivor count (dose: 100.0 mg/kg/injection, schedule: Q01DX009 (ip), vehicle: saline) of the same compound?
The survivor count was 6 of 6.

Which survivor count (dose: 240.0 mg/kg/injection, schedule: Q01DX005 (ip), vehicle: Klucel (hydroxypropylcellulose) (HPC)) does the source give for `CC(C)(C)N(Cc1ccccc1)C(O)Cc1c(-c2ccccc2)c(-c2ccccc2)c2n1CCC2` (stereo not drawn) here?
Its survivor count is 6 of 6.

How did the T/C (dose: 12.5 mg/kg/injection, schedule: Q01DX005 (ip), vehicle: saline with Tween-80) turn out when `C/C(=N\NC(=S)/N=c1\sccn1Cc1ccccc1)c1ccccn1` was run?
The T/C was 125 and 134 % of control.

And the T/C [1]?
The T/C was 135 and 137 % of control.

What about the T/C [2] of the same compound?
The T/C was 146 % of control.

What about the survivor count [2] of the same compound?
Its survivor count is 5 of 6.

And the survivor count [3]?
Its survivor count is 4 of 6.

What about the survivor count [4] of the same compound?
Its survivor count is 4 of 6.

For `CCN(CC)c1ccc(C(=C2C=CC(=[N+](CC)CC)C=C2)c2ccc(N(CC)CC)cc2)cc1`, which T/C [1] is on record?
Its T/C is 125 % of control.

What about the T/C [3] of the same compound?
The T/C was 129 % of control.

What about the survivor count [3] of the same compound?
The survivor count was 5 of 5.

And the survivor count [4]?
Its survivor count is 0 of 5.

Which results are given for `O=C(NC12CC3CC(CC(C3)C1)C2)OCCN1CCN(CCCN2c3ccccc3Sc3ccc(C(F)(F)F)cc32)CC1`?
survivor count (dose: 200.0 mg/kg/injection, schedule: Q04DX002 (ip), vehicle: saline with Tween-80): 6 of 6; survivor count (dose: 400.0 mg/kg/injection, schedule: Q04DX002 (ip), vehicle: saline with Tween-80): 2 of 6

With `Cc1cc2nc(CN(CCN(Cc3nc4cc(C)c(C)cc4[nH]3)Cc3nc4cc(C)c(C)cc4[nH]3)Cc3nc4cc(C)c(C)cc4[nH]3)[nH]c2cc1C` as the compound, how does the survivor count (dose: 100.0 mg/kg/injection, schedule: Q01DX001 (ip), vehicle: saline with Tween-80) read?
The survivor count was 2 of 6.

What about the survivor count (dose: 200.0 mg/kg/injection, schedule: Q01DX001 (ip), vehicle: saline with Tween-80) of the same compound?
The survivor count was 0 of 6.

And the survivor count (dose: 400.0 mg/kg/injection, schedule: Q01DX001 (ip), vehicle: saline with Tween-80)?
Its survivor count is 0 of 6.

`O=C1NC(c2cccc3ccccc23)Nc2ccc(O)cc21` (stereo not drawn) was tested. Which survivor count (dose: 100.0 mg/kg/injection, schedule: Q01DX005 (ip), vehicle: DMSO) did it give?
The survivor count was 6 of 6.

And the survivor count (dose: 200.0 mg/kg/injection, schedule: Q01DX005 (ip), vehicle: DMSO)?
The survivor count was 6 of 6.

And the survivor count (dose: 400.0 mg/kg/injection, schedule: Q01DX005 (ip), vehicle: DMSO)?
Its survivor count is 6 of 6.
